From patent US9533937B2, “Use of metal scavengers for removal of ruthenium residues” (Apeiron Synthesis S.A., priority 2013, dated 2017)

Columns and labels:
[1] = cited from earlier work
[2] = Removal of ruthenium residues from post-reaction mixtures with metal scavengers, filtration through silica gel; Ru content by ICP-MS

In the case of `OCP(CO)CO`, the “Ru contamination of the product” value ([1]; scavenger 430 mol %, 0.16 hours, adding SiO2, filtration) is listed as 206 ppm and the “Ru contamination of the product” value ([1]; scavenger 430 mol %, 0.16 hours, purification by extraction) is listed as 670 ppm.

With `[C-]#[N+]CCN1CCOCC1` the “Ru contamination of the product” value ([2]; Table 2 reaction, scavenger 4.4 mol %, 22 °C, CH2Cl2) was 17 ppm and the “Ru contamination of the product” value ([2]; Table 2 reaction, scavenger 8.8 mol %, 22 °C, CH2Cl2) was 11 ppm.

For `[C-]#[N+]CC(=O)[O-].[K+]` [CNCH2CO2K], the “Ru contamination of the product” value ([2]; Table 3, (pre)catalyst drawing 20, scavenger 8.8 mol %) was 142 ppm, the “Ru contamination of the product” value ([2]; Table 3, (pre)catalyst drawing 21, scavenger 8.8 mol %) was 251 ppm and the “Ru contamination of the product” value ([2]; Table 3, (pre)catalyst drawing 22, scavenger 8.8 mol %) was 159 ppm. For the same molecule, the “Ru contamination of the product” value ([2]; Table 3, (pre)catalyst drawing 23, scavenger 8.8 mol %) was 370 ppm and the “Ru contamination of the product” value ([2]; Table 4 reaction, scavenger 8.8 % mol, 70 °C, toluene) was 189 ppm.

For `O=P(c1ccccc1)(c1ccccc1)c1ccccc1`, the “Ru contamination of the product” value ([1]; scavenger 250 mol %, 12 hours, chromatography over SiO2) is given as 240 ppm.

Like-named read-outs stand apart in the source and are kept apart here.
